The other results are listed elsewhere or left out.
Each sequence was assayed against OsWRKY34 (Oryza sativa, UniProt Q0JBA9 1-250) (assay: protein-binding microarray (RPBM); PBS, 2% BSA, 51.3 ng/ul salmon testes DNA, 50 uM zinc acetate, 200 nM TF, 25 C, 1 h; high values mean tight binding). Settings: protein: recombinant; tags: N-terminal polyhistidine and DsRed monomer fusion (pET32a); label: CyDye5-dUTP incorporated in the synthesized complementary strand; 3' TTTTT single-stranded linker to array surface; dsDNA, one strand shown.
Summary of the method: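 The binding signal is fluorescence intensity per feature, in arbitrary units, read on an Axon 4000B scanner. Polyhistidine- and DsRed-tagged transcription factors (N-terminal fusions) from E. coli BL21-CodonPlus were purified on Ni–NTA and applied at 200 nM for 1 h at 25 °C to a double-stranded, BSA-blocked custom Agilent array in buffer with 50 µM zinc acetate.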

By UniProt entry, the sequences of proteins in these tests, tags left out.
UniProt Q0JBA9, entry or part of it: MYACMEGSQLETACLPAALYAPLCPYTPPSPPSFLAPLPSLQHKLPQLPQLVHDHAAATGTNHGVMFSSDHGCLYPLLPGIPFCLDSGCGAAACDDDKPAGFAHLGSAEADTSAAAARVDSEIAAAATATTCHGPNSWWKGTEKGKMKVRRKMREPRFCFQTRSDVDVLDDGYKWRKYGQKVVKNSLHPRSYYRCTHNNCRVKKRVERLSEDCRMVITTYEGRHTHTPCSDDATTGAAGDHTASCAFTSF

| Sequence | binding signal |
| --- | --- |
| GTATCCATTTCGTTTCCAATATCATACTACCTGTCTTCTACGGAGTCACCTAGTGCAG | 10700 fluorescence intensity (a.u.) |
| GCAGCAGTATAAGCAGTAAGCACTCCACTCACTCACCAAACGGAGTCACCTAGTGCAG | 9250 fluorescence intensity (a.u.) |
| GTTGCCACACCTCATGTTAGGCAAGTTTGACCAAATTAGTCGGAGTCACCTAGTGCAG | 8680 fluorescence intensity (a.u.) |
| GTCACACTCCACTCCGTCCACCACCACCACCACCGCATCGCGGAGTCACCTAGTGCAG | 9590 fluorescence intensity (a.u.) |
| TTTTAGCACATGTTGACCGTTCGTCTTATTCAAAAAATTTCGGAGTCACCTAGTGCAG | 9160 fluorescence intensity (a.u.) |
| TTTGCTCTCGCTTGCATTTACACCATGATTACTCCTAATCCGGAGTCACCTAGTGCAG | 8390 fluorescence intensity (a.u.) |
| TCCTTCCCACCTACTCTCTCCTACCACACACTTGTCTCTCCGGAGTCACCTAGTGCAG | 9050 fluorescence intensity (a.u.) |
| ACTTGGTTGATCATGATTTTTATTTGGCGATGTCATCTCACGGAGTCACCTAGTGCAG | 10600 fluorescence intensity (a.u.) |
| GTTATCGTCATTACGTCAATACGTGTTTTCGAAAATAATTCGGAGTCACCTAGTGCAG | 8450 fluorescence intensity (a.u.) |
| TCTCTCTCTCTCTCTCTTTCTCTCTCTCGCCTCGCGAAACCGGAGTCACCTAGTGCAG | 9900 fluorescence intensity (a.u.) |
| ATGTAGAAAATTTTAACAGCTATCTTTTTTTTTGGGCGGGCGGAGTCACCTAGTGCAG | 11600 fluorescence intensity (a.u.) |
| GCCGGTCTCCTCCCCGCCACCGCCGCCGCCGCCGCCAATGCGGAGTCACCTAGTGCAG | 8650 fluorescence intensity (a.u.) |
| GTATACATGTTTCAATTTTTTTCTGGTATATTTAGTTTTTCGGAGTCACCTAGTGCAG | 8320 fluorescence intensity (a.u.) |
| CTAAGATACTCTTCCACTCTTCCTTGCTCCATCAGTATTACGGAGTCACCTAGTGCAG | 8040 fluorescence intensity (a.u.) |
| CTCCGTCCTTACCTACCCGTGGAATCGGTCGTCGCTCATCCGGAGTCACCTAGTGCAG | 14400 fluorescence intensity (a.u.) |
| CGATGCACCATATTCTTTATTTTTTCGCCCTTTACAGTCTCGGAGTCACCTAGTGCAG | 11100 fluorescence intensity (a.u.) |
| TAAAATCGCATCCGTTGTTGCTTCATACCCATGTTCCCCACGGAGTCACCTAGTGCAG | 9020 fluorescence intensity (a.u.) |
| CCATGGCGGGGTGTATTGTTGTTGTATTTGGGGTTCTGGTCGGAGTCACCTAGTGCAG | 19200 fluorescence intensity (a.u.) |
| CCATTCTCCTTGAGCATATGTATCCCAATTGATTTGTAAACGGAGTCACCTAGTGCAG | 9370 fluorescence intensity (a.u.) |
| AGCACAAATATCACAACCTGACCCACATTAGTCACACGCACGGAGTCACCTAGTGCAG | 8360 fluorescence intensity (a.u.) |
| TCTTAAATATGCCGGCTTATTTTGTACTCCTCTACACCTGCGGAGTCACCTAGTGCAG | 8170 fluorescence intensity (a.u.) |
| GTGTCCAACTTTGACTGTCCATCTTATATGAAATTTTTTTCGGAGTCACCTAGTGCAG | 9230 fluorescence intensity (a.u.) |
| AGGTTCAACACCTCCCATTGCTCGCAAGAATGTCTGCAGCCGGAGTCACCTAGTGCAG | 8200 fluorescence intensity (a.u.) |
| CTGGGCAAAATCTCTCCCATACATACACTACAGCGGCGAACGGAGTCACCTAGTGCAG | 9910 fluorescence intensity (a.u.) |
| TTGGAGGTCCAGTGTGATCGTATCGTCCGTGCTGGCTCTGCGGAGTCACCTAGTGCAG | 8240 fluorescence intensity (a.u.) |
| GCTTCATCACTCCATCTCGCCTTGTCTCATTCCAAGTATACGGAGTCACCTAGTGCAG | 9070 fluorescence intensity (a.u.) |
| GTTCTTCCATCCTCGTCGTGCCGACTCCTCCTGTCCTCCACGGAGTCACCTAGTGCAG | 8500 fluorescence intensity (a.u.) |

| Sequence | binding signal |
| --- | --- |
| GTGCCGACCTCCATCGCCGGATTTCCTTTTGCGTACCTCACGGAGTCACCTAGTGCAG | 10100 fluorescence intensity (a.u.) |
| CGGGGTTTTATCATAGTTGTTGCACTGGCTTGAATTGTTTCGGAGTCACCTAGTGCAG | 8170 fluorescence intensity (a.u.) |
| TGCTATTGCGCAACGTCGAGCTCATCTCTATACCACACCGCGGAGTCACCTAGTGCAG | 11100 fluorescence intensity (a.u.) |
| CTCCTTGGCCCGTTTGGTCTCTGTGTGGGTTGGTAAAGACCGGAGTCACCTAGTGCAG | 9810 fluorescence intensity (a.u.) |
| TTGCATAGTGGTTTATATCATCTTTATCTACCTTGTCAAACGGAGTCACCTAGTGCAG | 10100 fluorescence intensity (a.u.) |
| AATCGAACAGGCTGAGGTATTCCACGATCGCACACTTACCCGGAGTCACCTAGTGCAG | 8780 fluorescence intensity (a.u.) |
| GAGAAAATTGTTAGTGTGCCATCTTCAAATATGGGTTTCACGGAGTCACCTAGTGCAG | 8190 fluorescence intensity (a.u.) |
| GAACTCACCACACACAACATGTCATTTGTTCTACATGGATCGGAGTCACCTAGTGCAG | 8890 fluorescence intensity (a.u.) |
| ACTGAAGAATTGTCACTGTTTTTCCAGCTGAAGTAATTTACGGAGTCACCTAGTGCAG | 9420 fluorescence intensity (a.u.) |
| TGGGTTTGCAAGTCTAAAAAGGGAGTGGGGTGGCATGGTGCGGAGTCACCTAGTGCAG | 9100 fluorescence intensity (a.u.) |
| GGTTTTAAAGGGGTTCCATACACGTATGATAATAAGAGACCGGAGTCACCTAGTGCAG | 8180 fluorescence intensity (a.u.) |
| AGAGGGAATGGGACTATGGGAGTTTAATTAGGATATTTGACGGAGTCACCTAGTGCAG | 8750 fluorescence intensity (a.u.) |
| AACAAGGGAGGGAGGGGCGGCGATCTCCATCTGGCGAGCACGGAGTCACCTAGTGCAG | 10900 fluorescence intensity (a.u.) |
| GGTGAAAGCTAGGAACACACAACCCACACGCCTCGCTGCCCGGAGTCACCTAGTGCAG | 8990 fluorescence intensity (a.u.) |
| ACCAAAAAACAACAACACCTGCCAATTACTCCTCGCGGTTCGGAGTCACCTAGTGCAG | 8440 fluorescence intensity (a.u.) |
| ACTCTTCTGTTTTCCTGCGCTGTGTAATGTCAAAATTCTCCGGAGTCACCTAGTGCAG | 13000 fluorescence intensity (a.u.) |
| CTGCATGGTCAGCTACTTGCAGCTGCTTCTGGTTCTTCACCGGAGTCACCTAGTGCAG | 8230 fluorescence intensity (a.u.) |
| TCTCCCGCTGACTGACACCTCAAAACCGGCCGTCCCACGACGGAGTCACCTAGTGCAG | 11300 fluorescence intensity (a.u.) |
| ACTTAAAGCACTTTTTCTCCGTCTTAATTGTGATCTTGTACGGAGTCACCTAGTGCAG | 11200 fluorescence intensity (a.u.) |
| CTACAACTTCCTCCGCCGCAACTGCCGCGGCCCCGACGTCCGGAGTCACCTAGTGCAG | 8220 fluorescence intensity (a.u.) |
| CTCTCCCACTTGCACCACGGAATCTCACCCATCCACGTGTCGGAGTCACCTAGTGCAG | 9080 fluorescence intensity (a.u.) |
| GCTGTTTCGTCGTTTCCGCGCGGTGGAGCCCACCTGCCCACGGAGTCACCTAGTGCAG | 11700 fluorescence intensity (a.u.) |
| ATGCGAGCACCCGAACGTCTTCACATATATCGTCTGCAACCGGAGTCACCTAGTGCAG | 8270 fluorescence intensity (a.u.) |
| TCCCAAACCCCGCGCCGCCTCTTACCGCTTCGCGTCAGCTCGGAGTCACCTAGTGCAG | 8490 fluorescence intensity (a.u.) |
| ATGCCAGGACACACGAAATCTCTTTACCATCCGATTACAGCGGAGTCACCTAGTGCAG | 8340 fluorescence intensity (a.u.) |
| AGACTTTATTTTTTCCCTGGGCTAAGGACTAGTCCCATATCGGAGTCACCTAGTGCAG | 8980 fluorescence intensity (a.u.) |
| CACCACCACCACCTCCTCCTTCCAAAGATTCCTTCTCTTCCGGAGTCACCTAGTGCAG | 9970 fluorescence intensity (a.u.) |

A section of the results above, for reference:

| Sequence | binding signal |
| --- | --- |
| CTCCTTGGCCCGTTTGGTCTCTGTGTGGGTTGGTAAAGACCGGAGTCACCTAGTGCAG | 9810 fluorescence intensity (a.u.) |
| TTGCATAGTGGTTTATATCATCTTTATCTACCTTGTCAAACGGAGTCACCTAGTGCAG | 10100 fluorescence intensity (a.u.) |
